Assay results reported in US6610686B1, “Use of pirenoxine for the protection of corneal tissues in photokeractomy” (Ausimont S.p.A., priority 1999, dated 2003).

Test system: epithelial corneal cells (SIRC)
Assay: In vitro protection of UV312 irradiated epithelial corneal cells (SIRC)
Format: cell-based
Conditions: UV312 80 mJ/cm^2, 10^−5 pirenoxine, 17 hours at 37° C.
Experimental: The protective effect of pirenoxine on epithelial comeal cells (SIRC) irradiated for 36″ using UV312 light (80 mJ/cm^2), according to the following procedure: (a) the comeal cells were plated in 35 mm diameter wells; (b) at 80% confluency the cells were contacted with a medium at low (0,2%) serum content to inhibit the proliferation thereof during the experiment (c) the cells were irradiated with UV light in presence and in absence of 10^−5 pirenoxine, incubated at 37° C. for 17 hours and homogenized in 10 mM f) phosphate buffer, pH 7,4; (d) the lipid-soluble fluorescent substances and the proteins contained in suitable homogenate aliquots were determined.

SMILES: O=C(O)c1cc(O)c2c3nc4ccccc4oc-3cc(=O)c2n1 [pirenoxine, 1-hydroxy-5-oxo-5H-pyrido-[3,2a]-phenoxazin-3-carboxylic acid]
- Proteins (Cells 14/01): 0.333 mg/mL
- Proteins (Cells 17/12): 0.403 mg/mL
- Proteins (Cells 20/12): 0.245 mg/mL
